Laboratory results: PubChem BioAssay AID504834 (National Center for Advancing Translational Sciences (NCATS), 2011)
Several values for one entry are separate records, joined by “and”; a condition that tells them apart may be missing. Equal entries are not always repeated. About 22,000 (6.9%) of roughly 320,000 compounds were called active. The inconclusive results got no clear call from the source; some entries with a clear call stand among them for comparison. The call rests on the fitted dose curve; in most records, active means well fitted inhibition curve with a large enough effect; inconclusive means small, poorly fitted or top-dose-only effect, or another doubt; inactive means no such curve, though single readings can be large or run the other way. Potencies beside an inconclusive call are fits to weak or partial responses and may not hold up.

Assay: Primary qHTS for delayed death inhibitors of the malarial parasite plastid, 96 hour incubation
Details: P. falciparum luciferase reporter growth; series mostly up to 28.7 µM
Outline: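 Parasite growth measured via integrated firefly luciferase reporter in P. falciparum. Infected erythrocytes at 2% hematocrit, 0.05% parasitemia final were treated 96 hours at 37 C under 5% CO2, and luminescence was read.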
Potency means the concentration at half of the fitted maximal effect.

Q: Which Potency does the source give for Cc1cc(C)c(C)c(S(=O)(=O)N2CCN(C(=O)CCC(=O)N3CCOCC3)CC2)c1C here?
A: inconclusive: 8.28 µM [inhibitor, partial curve, poor fit]

Q: With COc1ccc(C2=C(c3ccc([N+](=O)[O-])cc3)C(=O)OC2)cc1 as the compound, how does the Potency read?
A: inconclusive: 0.37 µM [inhibitor, full curve]

Q: For C/C(=N\Nc1nc(-c2ccc(C)cc2C)cs1)c1cc2ccccc2oc1=O, which Potency is on record?
A: inconclusive: 18.5 µM [inhibitor, single point]

Q: Which Potency does the source give for CC(C)N(Cc1ccccc1)C(=O)c1ccc2nsnc2c1 here?
A: inconclusive: 18.5 µM [inhibitor, single point]

Q: Which Potency does the source give for O=C1CCCN1CCCNc1ncnc2c1[nH]c1ccc(Cl)cc12 here?
A: inconclusive: 18.5 µM [inhibitor, single point]

Q: With CCOc1ccccc1CNC(=O)C1CCN(C(=O)c2sccc2-n2cccc2)CC1 as the compound, how does the Potency read?
A: inconclusive: 0.0029 µM [inhibitor, full curve, poor fit]

Q: For CCOc1ccc(NC(=O)Nc2ccc3c(c2)N(C)C(=O)CS3)cc1, which Potency is on record?
A: inconclusive: 0.37 µM [inhibitor, full curve]

Q: Which Potency does the source give for COc1ccc(CCNC(=O)C2CC3Cn4c(nc5cc(C)c(C)cc54)C3N2C)cc1 (stereo unspecified) here?
A: inconclusive: 11.7 µM [inhibitor, single point]

Q: For COc1ccc(NC(=O)CN(C)C(=O)C23CC4CC(CC(C4)C2)C3)cc1, which Potency is on record?
A: inconclusive: 1.85 µM [inhibitor, full curve, poor fit]

Q: With Cc1ccc(NC(=S)c2nc3ccccc3[nH]2)c(C)c1 as the compound, how does the Potency read?
A: inactive

Q: For Cc1[nH]c2ccc(CNS(=O)(=O)c3ccc(S(=O)(=O)N4CCOCC4)cc3)cc2c1C, which Potency is on record?
A: inconclusive: 5.86 µM [inhibitor, partial curve, poor fit]

Q: With Cn1c(-c2ccsc2)c(-c2cccs2)c2cc(-c3cccc4[nH]ccc34)ccc21 as the compound, how does the Potency read?
A: inconclusive: 2.94 µM [inhibitor, single point]

Q: With O=C(Nc1ncc(Cc2ccccc2Cl)s1)C1=NCCN1 as the compound, how does the Potency read?
A: inconclusive: 14.7 µM [inhibitor, single point]

Q: Which Potency does the source give for CCC(C(N)=NCCc1ccc(OC)c(OC)c1)c1ccccc1 (stereo unspecified) here?
A: inactive

Q: For COc1cc(/C=N/NC(=O)c2c(C)nc3ccc(Cl)cn23)cc(OC)c1OC, which Potency is on record?
A: inactive

Q: With CCN(CC(=O)Nc1c(F)cccc1F)C(=O)CCc1nc2cc(S(=O)(=O)N3CCOCC3)ccc2n1C as the compound, how does the Potency read?
A: inconclusive: 10.4 µM [inhibitor, partial curve]

Q: With Cc1ccccc1C(=O)NCCSc1ccccc1 as the compound, how does the Potency read?
A: inactive

Q: With Fc1ccc(C2CCCCN2Cc2nc(CC3CC3)no2)cc1 (stereo unspecified) as the compound, how does the Potency read?
A: inconclusive: 7.38 µM [inhibitor, single point]

Q: For O=C(CN1CCCSc2ccccc21)N1CCN(S(=O)(=O)c2ccccc2)CC1, which Potency is on record?
A: inconclusive: 18.5 µM [inhibitor, single point]

Q: With Cc1ccc(-c2nnn(CC(=O)Nc3nnc(C(C)C)s3)n2)cc1 as the compound, how does the Potency read?
A: inconclusive: 10.4 µM [inhibitor, single point]

Q: With O=C(Cn1ncc2c1-c1ccccc1OC2)N(Cc1ccco1)C1CCCCC1 as the compound, how does the Potency read?
A: inconclusive: 14.7 µM [inhibitor, partial curve, poor fit]

Q: Which Potency does the source give for CCOP(=O)(OCC)C(NC(=O)NS(=O)(=O)c1ccc(C)cc1)c1ccccc1 (stereo unspecified) here?
A: inactive

Q: Which Potency does the source give for O=C(Cn1cncn1)NCc1ccccc1Br here?
A: inconclusive: 0.0029 µM [inhibitor, full curve, poor fit]

Q: For COc1cccc(C2c3[nH]c4ccccc4c3C[C@H]3C(=O)N(CCCO)CC(=O)N23)c1OC (stereo partly specified), which Potency is on record?
A: inconclusive: 18.5 µM [inhibitor, single point]

Q: Which Potency does the source give for CCn1c(CNC(=O)Cc2ccc(OC)cc2)nnc1SCC(=O)c1ccc(Br)cc1 here?
A: inconclusive: 4.65 µM [inhibitor, partial curve, poor fit]

Q: With CCN(CCN(C)C)C(=O)C1CCN(S(=O)(=O)c2c(C)noc2/C=C/c2ccccc2F)CC1 as the compound, how does the Potency read?
A: inactive

Q: For FC(F)(F)c1cccc(-c2cc(C3CCNCC3)[nH]n2)c1, which Potency is on record?
A: inconclusive: 16.5 µM [inhibitor, single point]

Q: For O=C(NCC(c1cccs1)N1CCc2ccccc21)c1ccccc1 (stereo unspecified), which Potency is on record?
A: inconclusive: 10.4 µM [inhibitor, single point]

Q: With O=C(Nc1ccc(C(=O)N2CCN(c3ccccn3)CC2)cc1)c1ccc(Br)o1 as the compound, how does the Potency read?
A: inconclusive: 18.5 µM [inhibitor, single point]

Q: Which Potency does the source give for CCN1/C(=C/c2ccc3cc(C)ccc3[n+]2CC)Sc2cc(C)ccc21 here?
A: inconclusive: 1.17 µM [inhibitor, partial curve, poor fit]

Q: For COc1ccc(OC)c(NC(=S)N(CCc2c(C)[nH]c3ccccc23)Cc2cccs2)c1, which Potency is on record?
A: inconclusive: 18.5 µM [inhibitor, partial curve, poor fit]

Q: For CCN(CC)CCNCc1ccc(OCc2ccc(Cl)nc2)c(OC)c1, which Potency is on record?
A: inconclusive: 18.5 µM [inhibitor, single point]

Q: For CCOc1ccc(C(=O)NNC(=O)CCNC(=O)c2ccc(Br)cc2)cc1OC, which Potency is on record?
A: inconclusive: 10.4 µM [inhibitor, single point]

Q: With CN(C)c1oc(-c2ccccc2[N+](=O)[O-])nc1C#N as the compound, how does the Potency read?
A: inactive

Q: For COc1ccc(S(=O)(=O)N2CCOCC2)cc1NC(=O)CSc1n[nH]c(C(C)C)n1, which Potency is on record?
A: inactive

Q: Which Potency does the source give for CCC(=NCCc1ccccc1)C1=C(O)CCC1=O here?
A: inconclusive: 18.5 µM [inhibitor, single point]

Q: With C/C=C/c1ccc(OCC(=O)Nc2ccncc2)c(OC)c1 as the compound, how does the Potency read?
A: inactive

Q: For O=C(Nc1ccc2c(c1)nc1n2CCSC1)c1ccco1, which Potency is on record?
A: inactive

Q: With CCOC(=O)CSc1nnc(Cn2nnc3ccccc32)n1-c1ccc(F)cc1 as the compound, how does the Potency read?
A: inactive

Q: For CC(C)C(=O)Nc1cccc(NC(=O)c2ccc(Cl)cc2Cl)c1, which Potency is on record?
A: inactive

Q: Which Potency does the source give for Cc1cccc(C)c1N=Cc1c(C(F)(F)F)[nH][nH]c1=O here?
A: inactive

Q: Which Potency does the source give for CCCS(=O)(=O)N1CCC(C(=O)NCCC(C)C)CC1 here?
A: inactive

Q: Which Potency does the source give for COc1cc(C)c(S(=O)(=O)NCc2cccnc2)cc1C here?
A: inactive

Q: Which Potency does the source give for COc1ccc(/C(N)=N/OC(=O)c2ccc(C)c([N+](=O)[O-])c2)cc1 here?
A: inactive

Q: Which Potency does the source give for Cc1ccc(-c2oc3ccccc3c(=O)c2O)cc1 here?
A: inactive

Q: With Cc1[nH]n(-c2ccccc2)c(=O)c1N=Nc1ccccc1C(=O)O as the compound, how does the Potency read?
A: inconclusive: 6.57 µM [inhibitor, partial curve, poor fit]

Q: Which Potency does the source give for CCOc1ccc(NC(=O)Cn2c(=O)n(CCCC(=O)NC3CCN(Cc4ccccc4)CC3)c(=O)c3ccccc32)cc1 here?
A: inactive

Q: Which Potency does the source give for COC(=O)C1=C(C)N(c2ccc(OC)cc2)C(C)=C(C(=O)OC)C1c1ccccc1 here?
A: inconclusive: 1.85 µM [inhibitor, full curve, poor fit]

Q: For OC1CCCN(CC(O)COC(c2ccc(F)cc2)c2ccc(F)cc2)C1 (stereo unspecified), which Potency is on record?
A: active: 2.08 µM

Q: For COc1cccc(CN2C(=O)C(C)Oc3ccccc32)c1 (stereo unspecified), which Potency is on record?
A: inconclusive: 18.5 µM [inhibitor, single point]

Q: For Cc1ccc(-c2nnn(CCOc3cccc(Br)c3)n2)cc1, which Potency is on record?
A: inconclusive: 9.28 µM [inhibitor, single point]

Q: With O=C(NC1=NCCS1)c1ccc(Cl)c(S(=O)(=O)N2CCCCCC2)c1 as the compound, how does the Potency read?
A: inactive

Q: Which Potency does the source give for Cc1ccc(C)c(NC(=O)c2cc3ccccc3o2)c1 here?
A: inconclusive: 13.1 µM [inhibitor, single point]

Q: With CNc1nc2c3ccccc3n(C(C)=O)c2s1 as the compound, how does the Potency read?
A: inconclusive: 18.5 µM [inhibitor, partial curve, poor fit]

Q: Which Potency does the source give for COc1ccc(NC(=O)C(=O)NCCC2CCCCN2S(=O)(=O)c2cccs2)cc1 (stereo unspecified) here?
A: inconclusive: 20.8 µM [inhibitor, single point]

Q: With COc1ccc(C2C(C(C)=O)=C(O)C(=O)N2c2nc3ccccc3s2)cc1OC (stereo unspecified) as the compound, how does the Potency read?
A: inconclusive: 0.165 µM [inhibitor, full curve]

Q: Which Potency does the source give for COCCN(C(=O)C(F)(F)F)C(C(=O)NC1CCCCC1)c1ccco1 (stereo unspecified) here?
A: active: 11.7 µM

Q: Which Potency does the source give for O=C(c1cccn2c(=O)c3ccc(Cl)cc3nc12)N1CCN(Cc2ccc3c(c2)OCO3)CC1 here?
A: active: 7.38 µM

Q: For Cc1cnccc1CNC(=O)C1CCC(=O)N(Cc2ccc(Cl)cc2)C1 (stereo unspecified), which Potency is on record?
A: inactive

Q: For Cc1ccc(-c2cc(C(F)(F)F)nn2-c2ccc(S(N)(=O)=O)cc2)cc1, which Potency is on record?
A: active: 5.36 µM and active: 5.86 µM

Q: For C[C@H](N)c1nnc(SCC(=O)N(C)C)o1, which Potency is on record?
A: inactive

Q: Which Potency does the source give for Cc1cc(Nc2ccc(F)c(Cl)c2)n2ncnc2n1 here?
A: inconclusive: 18.5 µM [inhibitor, single point]

Q: For CC(=O)C(C)Oc1ccc2c3c(c(=O)oc2c1)CCCC3 (stereo unspecified), which Potency is on record?
A: inactive

Q: Which Potency does the source give for Cn1cc(CN2CCN(CCc3ccccc3)C(CCO)C2)cn1 (stereo unspecified) here?
A: inactive

Q: With CCC1(C)CC(=O)N(c2ccc(C(=O)O)c(O)c2)C1=O (stereo unspecified) as the compound, how does the Potency read?
A: inconclusive: 16.5 µM [inhibitor, single point]

Q: Which Potency does the source give for CN(CC(=O)Nc1ccc(F)cc1)C(=O)Cn1nnc(-c2ccccc2)n1 here?
A: inconclusive: 11.7 µM [inhibitor, single point]

Q: Which Potency does the source give for O=C(Cn1cnc2ccccc21)Nc1cccc([N+](=O)[O-])c1 here?
A: inconclusive: 0.208 µM [inhibitor, partial curve, poor fit]

Q: With COc1ccccc1N1CCN(C(=O)C(=O)c2cn(CC(=O)N3CCCC3)c3ccccc23)CC1 as the compound, how does the Potency read?
A: active: 9.28 µM

Q: Which Potency does the source give for COc1cc(N)c(Cl)cc1Cl here?
A: inactive

Q: Which Potency does the source give for COc1cc(OC)cc(C(=O)NCc2n[nH]c(=S)n2-c2ccccc2)c1 here?
A: inconclusive: 3.7 µM [inhibitor, partial curve, poor fit]

Q: With CC(C)CCn1c(=S)[nH]c2ncccc2c1=O as the compound, how does the Potency read?
A: inconclusive: 18.5 µM [inhibitor, single point]
